From the supplement of paper PMC12067093, “Discovery and optimisation of a covalent ligand for TRIM25 and its application to targeted protein ubiquitination” (Chemical Science, 2025)
This is one part of the list.

Molecular target: T1, FBXW4_P57775_167_RPLGVFAGHDEDVCHFVLANSHIVSAGGDGK (UniProt P57775)
T1 sequence (whole entry): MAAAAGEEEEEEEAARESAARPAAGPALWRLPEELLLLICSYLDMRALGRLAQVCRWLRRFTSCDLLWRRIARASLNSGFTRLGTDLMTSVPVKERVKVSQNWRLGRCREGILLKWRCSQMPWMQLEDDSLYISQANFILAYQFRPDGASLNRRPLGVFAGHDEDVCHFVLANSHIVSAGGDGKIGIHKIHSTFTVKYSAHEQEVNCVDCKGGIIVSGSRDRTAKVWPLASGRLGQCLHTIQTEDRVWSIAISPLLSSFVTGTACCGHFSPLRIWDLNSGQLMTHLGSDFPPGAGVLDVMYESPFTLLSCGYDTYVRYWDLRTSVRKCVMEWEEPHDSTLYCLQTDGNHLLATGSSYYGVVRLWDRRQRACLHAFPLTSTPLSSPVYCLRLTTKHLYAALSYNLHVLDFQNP
Assay: probe-labelled cysteine peptide fold change vs DMSO (competition) (log2 fold change); higher = less target engagement (more negative = stronger competition)
Conditions: THP-1, incubation time: 4 h
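Further: competitive chemoproteomic profiling in live THP-1 cells with an iodoacetamide desthiobiotin (IA-DTB) probe, comparing probe-labelled peptide intensities in compound-treated cells against DMSO-treated controls.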

CC1Cc2ccccc2N1C(=O)C1CCCN(C(=O)CCl)C1 (mixture of isomers) [TRIM25 ligand 11 (diastereomer mixture)]
probe-labelled cysteine peptide fold change (10 µM): 0.16
probe-labelled cysteine peptide fold change (50 µM): 0.0559
